Results are given in words; binding and its absence hold for the method and conditions named. In cells and extracts the contact can be indirect. Some entries that bind do so weakly or less than the wild type.
Biological target: TAP1 (subunit of the transporter associated with antigen processing) (human (endogenous in monocytes and monocyte-derived DCs)) (UniProt Q03518)
Experiment: co-IP; anti-TAP1 mAb 148.3 cross-linked to sheep-anti-mouse IgG Dynabeads; solubilizates of monocytes, imDCs and mDCs in 1% digitonin, 150 mM NaCl, 50 mM HEPES pH 7.4, 8.6% glycerin; 3 h at 4 °C; washed with 0.1% digitonin; immunoblot; isotype antibody as control

| binding | Substance |
| --- | --- |
| binds | ERp57 (from UniProt P30101 25-505) |
| binds | calreticulin (from UniProt P27797 18-417) |

From PMC9365725
